# Source: PubChem BioAssay AID1259296 (Sanger Institute, 2017)
# Purpose: 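Kinase genes whose silencing works synergistically with colorectal cancer drugs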 (follow-up of hits)
# System: CAR1 human colorectal cancer cells
# Reagent: single siRNA against human genes
# Conditions: anchor drugs BYL719 at 1 µM, cetuximab at 5 µg/ml or trametinib at 10 nM, or DMSO vehicle, added a day after transfection
# Measurement: 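Viability as a fraction of control pool 2 (non-targeting), replicate mean; for every anchor drug, a synergy score comparing combined effect with drug and siRNA individually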
# Direction: synergy with BYL719 and synergy with cetuximab and synergy with trametinib: higher = stronger synergy between knock-down and drug; viability, siRNA plus trametinib and viability, siRNA alone (DMSO): higher = more viable cells
# Call rule: 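Active when synergy exceeds 0.10 with BYL719, cetuximab or trametinib, any one sufficing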
# The whole screen tested 160 reagents; shown is an unselected part. In the full data, 45 (28%) got an active call. 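Calls are per single siRNA duplex in CAR1 cells only; how the synergy score is calculated is not stated.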 A number with no mark means an inactive call. Reagents against one gene are numbered here. No viability above 1 is reported: the scale is capped. The record does not give: the amount of reagent, the time to read-out.
gene knocked down,reagent no.,synergy with BYL719,synergy with cetuximab,synergy with trametinib,"viability, siRNA plus trametinib (fraction of control)","viability, siRNA alone (DMSO) (fraction of control)"
IRAK1 (interleukin 1 receptor associated kinase 1),1,0.0446 (active),0.0234,0.443,0.553,0.996
IRAK1 (interleukin 1 receptor associated kinase 1),2,0.00387,-0.00239,0,1,1
IRAK1 (interleukin 1 receptor associated kinase 1),3,0.11 (active),0.0173,0.0219,0.923,0.945
IRAK1 (interleukin 1 receptor associated kinase 1),4,0.337 (active),-0.0497,0.152,0.715,0.867
CHD4 (chromodomain helicase DNA binding protein 4),1,-0.0526,-0.0707,0.0031,0.704,0.707
CHD4 (chromodomain helicase DNA binding protein 4),2,0.0755,-0.024,-0.019,0.62,0.601
CHD4 (chromodomain helicase DNA binding protein 4),3,-0.0936,-0.108,-0.0245,0.754,0.73
CHD4 (chromodomain helicase DNA binding protein 4),4,-0.0326,-0.0457,0.00724,0.929,0.936
IRAK3 (interleukin 1 receptor associated kinase 3),1,0.067 (active),0.144,0.171,0.569,0.74
IRAK3 (interleukin 1 receptor associated kinase 3),2,0.0151,-0.111,-0.125,0.978,0.853
IRAK3 (interleukin 1 receptor associated kinase 3),3,0.0859,-0.0663,0.0545,0.922,0.977
IRAK3 (interleukin 1 receptor associated kinase 3),4,-0.126,-0.117,0.0446,0.836,0.88
STK36 (serine/threonine kinase 36),1,-0.182,-0.108,-0.0205,0.803,0.783
STK36 (serine/threonine kinase 36),2,-0.115,-0.0395,-0.0215,0.906,0.884
STK36 (serine/threonine kinase 36),3,0.00137,-0.0602,0.0632,0.844,0.907
STK36 (serine/threonine kinase 36),4,-0.0332,-0.108,0.0178,0.775,0.793

Next part (4 carried over from the part before).
gene knocked down,reagent no.,synergy with BYL719,synergy with cetuximab,synergy with trametinib,"viability, siRNA plus trametinib (fraction of control)","viability, siRNA alone (DMSO) (fraction of control)"
STK36 (serine/threonine kinase 36),1,-0.182,-0.108,-0.0205,0.803,0.783
STK36 (serine/threonine kinase 36),2,-0.115,-0.0395,-0.0215,0.906,0.884
STK36 (serine/threonine kinase 36),3,0.00137,-0.0602,0.0632,0.844,0.907
STK36 (serine/threonine kinase 36),4,-0.0332,-0.108,0.0178,0.775,0.793
SYK (spleen associated tyrosine kinase),1,0.203 (active),0.00764,0.0863,0.621,0.708
SYK (spleen associated tyrosine kinase),2,0.0318 (active),0.0285,0.127,0.769,0.896
SYK (spleen associated tyrosine kinase),3,0.0915,-0.00503,0.096,0.76,0.856
SYK (spleen associated tyrosine kinase),4,-0.208,-0.146,-0.106,1,0.894
NR2F2 (nuclear receptor subfamily 2 group F member 2),1,-0.0606,-0.000436,0.0975,0.786,0.884
NR2F2 (nuclear receptor subfamily 2 group F member 2),2,-0.00603,-0.119,0.0149,0.907,0.922
NR2F2 (nuclear receptor subfamily 2 group F member 2),3,-0.0713,-0.0133,0.0367,0.914,0.95
NR2F2 (nuclear receptor subfamily 2 group F member 2),4,-0.11,-0.142,-0.172,0.961,0.789
GTF2H1 (general transcription factor IIH subunit 1),1,0.0172,-0.0375,-0.00231,0.924,0.921
GTF2H1 (general transcription factor IIH subunit 1),2,-0.0775,0.00487,0,1,1
GTF2H1 (general transcription factor IIH subunit 1),3,0.0343,0.021,0,1,1
GTF2H1 (general transcription factor IIH subunit 1),4,0.129 (active),0.0848,0.149,0.702,0.851
IKBKB (inhibitor of nuclear factor kappa B kinase subunit beta),1,-0.00419,0.0106,0.0561,0.775,0.831
IKBKB (inhibitor of nuclear factor kappa B kinase subunit beta),2,-0.0733,-0.0463,0.0441,0.793,0.837
IKBKB (inhibitor of nuclear factor kappa B kinase subunit beta),3,-0.0273,0.0818,-0.0405,0.998,0.957
IKBKB (inhibitor of nuclear factor kappa B kinase subunit beta),4,0.0225,-0.0439,0,1,1
SF3B1 (splicing factor 3b subunit 1),1,-0.152,-0.0589,0.000962,0.547,0.548
SF3B1 (splicing factor 3b subunit 1),2,-0.055,-0.0855,0.0664,0.407,0.473
SF3B1 (splicing factor 3b subunit 1),3,0.0429,0.0669,0.0802,0.745,0.825
SF3B1 (splicing factor 3b subunit 1),4,-0.149,-0.08,-0.102,0.626,0.524
